Publication PMC4519070
Results are given in words; binding and its absence hold for the method and conditions named. Binding can be weak; no strength is given.

Amino acid sequences for entries named in this document (tags omitted). A change or cut given only in a name is not applied to a line headed by its entry.
UniProt Q92538: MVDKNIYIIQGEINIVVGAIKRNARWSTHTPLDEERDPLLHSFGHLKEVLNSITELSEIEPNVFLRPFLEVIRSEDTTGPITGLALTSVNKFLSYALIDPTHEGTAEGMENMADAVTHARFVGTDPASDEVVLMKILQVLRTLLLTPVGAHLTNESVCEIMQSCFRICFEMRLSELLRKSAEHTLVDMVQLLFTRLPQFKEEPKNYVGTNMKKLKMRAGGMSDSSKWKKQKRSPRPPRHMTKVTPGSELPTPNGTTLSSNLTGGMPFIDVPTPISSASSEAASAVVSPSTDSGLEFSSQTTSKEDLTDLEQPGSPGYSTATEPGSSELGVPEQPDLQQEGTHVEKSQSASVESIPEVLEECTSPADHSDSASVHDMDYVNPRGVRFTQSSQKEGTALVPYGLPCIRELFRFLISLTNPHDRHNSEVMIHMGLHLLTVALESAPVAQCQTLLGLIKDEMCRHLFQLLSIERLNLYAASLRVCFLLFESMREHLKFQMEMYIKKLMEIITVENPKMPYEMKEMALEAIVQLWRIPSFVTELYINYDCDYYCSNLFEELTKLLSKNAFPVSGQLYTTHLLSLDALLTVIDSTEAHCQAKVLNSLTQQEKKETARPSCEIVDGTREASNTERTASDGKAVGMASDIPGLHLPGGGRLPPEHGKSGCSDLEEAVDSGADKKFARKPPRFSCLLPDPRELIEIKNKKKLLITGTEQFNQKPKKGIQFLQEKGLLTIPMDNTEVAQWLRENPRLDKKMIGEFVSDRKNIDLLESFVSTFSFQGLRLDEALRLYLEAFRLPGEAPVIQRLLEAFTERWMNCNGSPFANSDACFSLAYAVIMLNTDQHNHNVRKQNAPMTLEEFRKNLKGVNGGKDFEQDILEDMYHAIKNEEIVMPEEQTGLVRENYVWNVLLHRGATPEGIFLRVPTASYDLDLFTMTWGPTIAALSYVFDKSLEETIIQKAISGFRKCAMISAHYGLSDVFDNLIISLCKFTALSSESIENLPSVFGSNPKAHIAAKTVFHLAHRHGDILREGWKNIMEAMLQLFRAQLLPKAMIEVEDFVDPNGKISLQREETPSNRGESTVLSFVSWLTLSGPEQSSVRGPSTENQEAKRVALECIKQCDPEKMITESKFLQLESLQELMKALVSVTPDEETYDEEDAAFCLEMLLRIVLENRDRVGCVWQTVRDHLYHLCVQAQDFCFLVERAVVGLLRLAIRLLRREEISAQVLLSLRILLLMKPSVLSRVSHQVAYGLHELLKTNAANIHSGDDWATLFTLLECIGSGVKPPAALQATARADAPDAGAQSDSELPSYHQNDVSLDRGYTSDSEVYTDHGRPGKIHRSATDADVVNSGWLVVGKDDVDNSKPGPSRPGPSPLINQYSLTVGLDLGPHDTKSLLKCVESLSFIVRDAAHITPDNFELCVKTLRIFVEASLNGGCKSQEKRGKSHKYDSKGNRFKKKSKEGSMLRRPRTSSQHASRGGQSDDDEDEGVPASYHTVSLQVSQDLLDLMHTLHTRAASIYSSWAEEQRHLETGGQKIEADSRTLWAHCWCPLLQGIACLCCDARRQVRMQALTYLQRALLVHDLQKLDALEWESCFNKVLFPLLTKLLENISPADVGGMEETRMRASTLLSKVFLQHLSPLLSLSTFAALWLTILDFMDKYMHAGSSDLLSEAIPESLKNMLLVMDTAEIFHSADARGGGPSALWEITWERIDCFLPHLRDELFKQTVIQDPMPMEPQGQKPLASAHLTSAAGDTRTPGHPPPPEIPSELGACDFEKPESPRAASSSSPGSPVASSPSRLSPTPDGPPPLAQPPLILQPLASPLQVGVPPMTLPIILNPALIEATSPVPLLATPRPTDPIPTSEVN
UniProt P02699: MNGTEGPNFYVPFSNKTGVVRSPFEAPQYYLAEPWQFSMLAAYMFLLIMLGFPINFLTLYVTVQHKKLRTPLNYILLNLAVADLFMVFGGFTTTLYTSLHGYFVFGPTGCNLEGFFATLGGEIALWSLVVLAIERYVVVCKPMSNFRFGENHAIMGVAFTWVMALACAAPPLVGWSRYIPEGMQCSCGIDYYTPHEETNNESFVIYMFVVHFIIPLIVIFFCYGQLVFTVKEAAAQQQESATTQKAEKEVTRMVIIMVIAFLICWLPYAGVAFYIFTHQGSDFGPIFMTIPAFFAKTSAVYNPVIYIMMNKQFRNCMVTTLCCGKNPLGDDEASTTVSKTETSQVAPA
UniProt P18085: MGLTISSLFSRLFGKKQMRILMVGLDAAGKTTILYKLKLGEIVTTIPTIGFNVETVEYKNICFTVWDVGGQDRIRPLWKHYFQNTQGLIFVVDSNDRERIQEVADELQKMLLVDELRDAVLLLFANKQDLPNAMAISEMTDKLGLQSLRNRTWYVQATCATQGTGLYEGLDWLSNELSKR

Legend:
[1] = molecular target: GST-DCB-HUS domain of GBF1 (UniProt Q92538); assay: pull-down; GST-pulldowns of purified rhodopsin with GST-fused GBF1 domains, with or without recombinant Arf4; both purified
[2] = molecular target: GST-DCB-HUS domain of GBF1 (UniProt Q92538); assay: pull-down; GST-pulldowns with GST-fused GBF1 domains; recombinant Arf4 pre-loaded with GTPgS, with purified rhodopsin; both purified
[3] = molecular target: GST-Sec7-HDS1 domain of GBF1 (UniProt Q92538); assay: pull-down; GST-pulldowns with GST-fused GBF1 domains; recombinant Arf4 pre-loaded with GDPbS, with purified rhodopsin; both purified

## purified rhodopsin (from UniProt P02699 1-348) (receptor)
[1]
  binding: binds

## recombinant Arf4 (from UniProt P18085 1-180)
[2]
  binding: binds
[3]
  binding: binds
